Laboratory results reported in patent US12366572B2, “Activation of bioluminescence by structural complementation” (Promega Corporation, priority 2013, dated 2025).

B1: 11S: evolved non-luminescent polypeptide variant 11S (12S-51) (protein)
chain: MVFTLEDFVGDWEQTAAYNLDQVLEQGGVSSLLQNLAVSVTPIQRIVRSGENALKIDIHVIIPYEGLSADQMAQIEEVFKVVYPVDDHHFKVILPYGTLVIDGVTPNMLNYFGRPYEGIAVFDGKKITVTGTLWNGNKIIDERLITPDGSMLFRVTINS
B2: NanoLuc: full-length NanoLuc luciferase (Promega), SEQ ID NO: 2157 (protein)
chain: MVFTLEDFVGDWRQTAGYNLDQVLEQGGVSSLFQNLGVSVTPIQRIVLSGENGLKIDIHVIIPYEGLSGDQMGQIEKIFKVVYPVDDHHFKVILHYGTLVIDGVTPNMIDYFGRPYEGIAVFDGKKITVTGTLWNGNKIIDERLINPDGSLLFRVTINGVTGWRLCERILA
B3: NLPoly156: purified non-luminescent polypeptide NLpoly156, compared with NLpoly11S and NanoLuc (protein)
chain: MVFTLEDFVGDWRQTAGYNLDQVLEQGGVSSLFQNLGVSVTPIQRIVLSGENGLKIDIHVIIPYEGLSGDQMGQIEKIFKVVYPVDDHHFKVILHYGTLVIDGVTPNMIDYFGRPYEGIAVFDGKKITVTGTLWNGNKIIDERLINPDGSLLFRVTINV

Key:
HEK293T cells [1] = test: Western blot of expression level after transfection into HEK293T cells (Example 117); assay type: cell-based
HEK293T cells [2] = test: Protein expression level in HEK293T lysates by HaloTag TMR ligand gel (Example 143); assay type: cell-based

Molecule	Expression level compared to full-length NanoLuc luciferase (HEK293T cells [1])	Expression level relative to 1-156 (HEK293T cells [2])
B1	expresses similarly to Nluc	approximately 4 fold
B2	–	approximately 4 fold
B3	does not express as well as NanoLuc® luciferase (Nluc)	–
